The name of at least one read-out is uncertain. Some results were stated once for a whole list of compounds, not compound by compound.
Assay: Solubility determination (PBS 7.4, SIF, SGF)
Assay type: physicochemical
Conditions: for improvement in solubility in simulated intestinal fluid compared to Comparative Compounds 1-3: SIF
Description: Preparation of stock solutions: The stock solutions of test compounds and control compound diclofenac were prepared in DMSO at the concentrations of 10 mM.
Simulated Gastric Fluid (SGF): An aqueous mixture including hydrochloric acid, sodium chloride, and pepsin (pH=1.2).
Simulated Intestinal Fluid (SIF): Prepared by dissolving 6.8 g of KH2PO4 into about 500 mL ultrapure water and adjust the solution to a pH 6.8 with 0.1 M NaOH. 10 g trypsin is then dissolved into ultrapure water. The two solutions are mixed well and diluted with ultrapure water to a final volume of 1000 mL.
485 μL of (SIF, SGF, PBS 7.4, FESSIF, or FESSGF) was added into each vial of the cap-less Solubility Sample plate. The assay was performed in duplicate. Add one stir stick to each vial and seal using a molded PTFE/Silicone plug. […] After completion of the 2 hours, plugs were removed and the stir sticks were removed using a big magnet, the samples from the Solubility Sample plate were transferred into the filter plate. Using the Vacuum Manifold, all the samples were filtered. Aliquot of 5 μL and 5 μL DMSO were taken from the filtrate followed by addition of 490 μL of a mixture of H2O and acetonitrile containing internal standard (1:1). A certain proportion of ultrapure water was used to dilute the diluent according to the peak shape. The dilution factor was changed according to the solubility values and the LC-MS signal response.
Preparation of 300 μM standards (STD): From the 10 mM DMSO STD plate, 6 μL was transferred into the remaining empty plate, and then 194 μL of DMSO was added to that plate to have a STD concentration of 300 μM. […]
Procedure for sample analysis: The plate was placed into the well plate autosampler. The samples were evaluated by LC-MS/MS analysis.
Data analysis: All calculations were carried out using Microsoft Excel. The filtrate was analyzed and quantified against a standard of known concentration using LC coupled with mass spectral peak identification and quantitation. Solubility values of the test compound and control compound were calculated as follows: […]

Row | Structure (SMILES) | improvement in solubility in PBS buffer compared to Comparative Compounds 1-3 (PBS buffer) | improvement in solubility in simulated intestinal fluid compared to Comparative Compounds 1-3
1 | C[C@@H](Nc1ncnc2ccc(-c3cnc(Cl)c(NS(C)(=O)=O)c3)cc12)c1ccccc1 [Compound 2R, N-(2-chloro-5-(4-((1R-phenylethyl)amino)quinazolin-6-yl)pyridin-3-yl)methanesulfonamide] | same improvement | at least 5 times
2 | C[C@H](Nc1ncnc2ccc(-c3cnc(Cl)c(NS(C)(=O)=O)c3)cc12)c1ccccc1 [Compound 2S, N-(2-chloro-5-(4-((1S-phenylethyl)amino)quinazolin-6-yl)pyridin-3-yl)methanesulfonamide] | – | at least 5 times

Source: US20240239764A1, “SUBSTITUTED AMINOBENZYL HETEROARYL COMPOUNDS AS EGFR AND/OR PI3K INHIBITORS” (Mekanistic Therapeutics, priority 2020, published 2024)
